PubChem BioAssay AID1259405, NCATS, 2018
Purpose: 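Mouse-designed siRNAs used to find CHO productivity engineering targets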 (primary screen). Cell system: Chinese hamster CHO-K1 ovary cells with stable secreted eGFP expression. Reagent: single siRNA against mouse genes, 0.8 pmol siRNA per well (2 µl of 400 nM stock). Timing: 3 days. Measured: 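Percent of the per-plate non-targeting control median for intracellular GFP per well by laser scanning cytometry and for cell viability by ATP luminescence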. Reading the numbers: GFP, % of control: higher = more GFP per well, higher productivity; viability (ATP), % of control: higher = more viable cells (more ATP). Rule for the call: 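a knock-down is called active if GFP reaches 120% or more of non-targeting control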.
The whole screen tested about 50,000 reagents; below is an unselected part. About 4,000 of all reagents (8%) were called active. 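Mouse siRNA library applied to hamster cells; one well for each siRNA.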 Reagents against one gene are numbered here.

gene symbol | reagent no. | GFP, % of control | viability (ATP), % of control | Outcome
Il17c | 1 | 55.1 | 69.3 | inactive
Il17c | 2 | 67.4 | 68.7 | inactive
Il17c | 3 | 90.7 | 54.4 | inactive
Cfap20dc | 1 | 89.7 | 67.4 | inactive
Cfap20dc | 2 | 91.5 | 72.8 | inactive
Cfap20dc | 3 | 104 | 80.6 | inactive
Fam241b | 1 | 112 | 76.7 | inactive
Fam241b | 2 | 91 | 78.8 | inactive
Fam241b | 3 | 107 | 99.6 | inactive
Cd207 | 1 | 74.5 | 83.7 | inactive
Cd207 | 2 | 79.3 | 94.2 | inactive
Cd207 | 3 | 62.1 | 55.7 | inactive
Diaph1 | 1 | 63.8 | 59.9 | inactive
Diaph1 | 2 | 81.9 | 69.5 | inactive
Diaph1 | 3 | 80.2 | 69 | inactive
Gcfc2 | 1 | 63.5 | 77.9 | inactive
Gcfc2 | 2 | 56.4 | 89.5 | inactive
Gcfc2 | 3 | 80 | 89.1 | inactive
Baiap2 | 1 | 52 | 58.2 | inactive
Baiap2 | 2 | 39.9 | 38.1 | inactive
Baiap2 | 3 | 110 | 100 | inactive
Ptp4a2 | 1 | 87.2 | 92.8 | inactive
Ptp4a2 | 2 | 113 | 55 | inactive
Ptp4a2 | 3 | 71.6 | 79 | inactive
Wwp2 | 1 | 82.2 | 62.1 | inactive
Wwp2 | 2 | 105 | 80.5 | inactive
Wwp2 | 3 | 164 | 118 | active
Or1e16 | 1 | 79.7 | 55.4 | inactive
Or1e16 | 2 | 113 | 93.6 | inactive
Or1e16 | 3 | 97.4 | 59.6 | inactive
Rpl39 | 1 | 60.5 | 51.3 | inactive
Rpl39 | 2 | 35.2 | 13.2 | inactive
Rpl39 | 3 | 66.2 | 54.4 | inactive
Vmn2r-ps105 | 1 | 87.6 | 109 | inactive
Vmn2r-ps105 | 2 | 159 | 69.4 | active
Vmn2r-ps105 | 3 | 103 | 110 | inactive
Chd1 | 1 | 83.8 | 102 | inactive
Chd1 | 2 | 60.4 | 66.7 | inactive
Chd1 | 3 | 96.7 | 61.1 | inactive
Mras | 1 | 37.5 | 34.2 | inactive
Mras | 2 | 100 | 90.4 | inactive
Mras | 3 | 68.1 | 88.5 | inactive
Lamtor3 | 1 | 64.8 | 70.8 | inactive
Lamtor3 | 2 | 58.7 | 42.6 | inactive
Lamtor3 | 3 | 85.4 | 49 | inactive
Prnd | 1 | 80.6 | 107 | inactive
Prnd | 2 | 68.7 | 74.5 | inactive
Prnd | 3 | 64.2 | 98.8 | inactive
Pdp2 | 1 | 62.9 | 51.4 | inactive
Pdp2 | 2 | 77.8 | 63.3 | inactive
Pdp2 | 3 | 115 | 82.7 | inactive
Gpr84 | 1 | 102 | 107 | inactive
Gpr84 | 2 | 81.5 | 81.6 | inactive
Gpr84 | 3 | 52.2 | 66 | inactive
Terf1 | 1 | 62.7 | 44.3 | inactive
Terf1 | 2 | 66.1 | 72.1 | inactive
Terf1 | 3 | 80.7 | 66.9 | inactive
Ogfr | 1 | 88.6 | 113 | inactive
Ogfr | 2 | 147 | 109 | active
Ogfr | 3 | 48 | 74.3 | inactive
Arap2 | 1 | 101 | 102 | inactive
Arap2 | 2 | 143 | 114 | active
Arap2 | 3 | 57.8 | 42.3 | inactive
Or2y1e | 1 | 102 | 95.3 | inactive
Or2y1e | 2 | 48.4 | 58.7 | inactive
Or2y1e | 3 | 54.2 | 95.6 | inactive
Tfap4 | 1 | 104 | 76.2 | inactive
Tfap4 | 2 | 84.8 | 70.4 | inactive
Tfap4 | 3 | 67.9 | 70.7 | inactive
Ptrh2 | 1 | 86.7 | 83.9 | inactive
Ptrh2 | 2 | 81.1 | 90.9 | inactive
Ptrh2 | 3 | 54.9 | 59.9 | inactive
Foxq1 | 1 | 74.1 | 84.2 | inactive
Foxq1 | 2 | 47.2 | 45 | inactive
Rundc3b | 1 | 208 | 97.3 | active
Rundc3b | 2 | 77.3 | 87.6 | inactive
Rundc3b | 3 | 61.6 | 66.9 | inactive
Gzmn | 1 | 96.1 | 62.2 | inactive
Gzmn | 2 | 95.4 | 65.4 | inactive
Gzmn | 3 | 69.7 | 56.9 | inactive
Fry | 1 | 85.5 | 99.5 | inactive
Fry | 2 | 102 | 106 | inactive
Fry | 3 | 100 | 89.2 | inactive
Defb3 | 1 | 44.6 | 35.4 | inactive
Defb3 | 2 | 36.2 | 53 | inactive
Defb3 | 3 | 113 | 86.2 | inactive
Nipal4 | 1 | 97.1 | 106 | inactive
Nipal4 | 2 | 64.8 | 66.7 | inactive
Nipal4 | 3 | 93.2 | 79.4 | inactive
Or8g51 | 1 | 122 | 77.8 | active
Or8g51 | 2 | 83.1 | 71.5 | inactive
Or8g51 | 3 | 149 | 82.5 | active
Cntfr | 1 | 119 | 109 | inactive
Cntfr | 2 | 78.4 | 51 | inactive
Cntfr | 3 | 192 | 88.6 | active
Zfp422 | 1 | 78.6 | 48.7 | inactive
Zfp422 | 2 | 92.1 | 76.2 | inactive
Zfp422 | 3 | 73.7 | 105 | inactive
Or2l13b | 1 | 54.8 | 77.2 | inactive
Or2l13b | 2 | 91.7 | 86.2 | inactive
Or2l13b | 3 | 114 | 78.3 | inactive
Tbc1d5 | 1 | 61.1 | 52.5 | inactive
Tbc1d5 | 2 | 41.8 | 33.4 | inactive
Tbc1d5 | 3 | 88.1 | 89.9 | inactive
Ehmt1 | 1 | 94 | 69 | inactive
Ehmt1 | 2 | 88.1 | 97.2 | inactive
Ehmt1 | 3 | 40.8 | 66.6 | inactive

Only “viability (ATP), % of control” (16 entries from above):
Fry #1 = 99.5
Fry #2 = 106
Fry #3 = 89.2
Defb3 #1 = 35.4
Defb3 #2 = 53
Defb3 #3 = 86.2
Nipal4 #1 = 106
Nipal4 #2 = 66.7
Nipal4 #3 = 79.4
Or8g51 #1 = 77.8
Or8g51 #2 = 71.5
Or8g51 #3 = 82.5
Cntfr #1 = 109
Cntfr #2 = 51
Cntfr #3 = 88.6
Zfp422 #1 = 48.7
